Laboratory results as given in paper doi:10.1101/2021.09.16.460691.

Amino acid sequences for entries named in this document (tags omitted).
UniProt Q8BVE3: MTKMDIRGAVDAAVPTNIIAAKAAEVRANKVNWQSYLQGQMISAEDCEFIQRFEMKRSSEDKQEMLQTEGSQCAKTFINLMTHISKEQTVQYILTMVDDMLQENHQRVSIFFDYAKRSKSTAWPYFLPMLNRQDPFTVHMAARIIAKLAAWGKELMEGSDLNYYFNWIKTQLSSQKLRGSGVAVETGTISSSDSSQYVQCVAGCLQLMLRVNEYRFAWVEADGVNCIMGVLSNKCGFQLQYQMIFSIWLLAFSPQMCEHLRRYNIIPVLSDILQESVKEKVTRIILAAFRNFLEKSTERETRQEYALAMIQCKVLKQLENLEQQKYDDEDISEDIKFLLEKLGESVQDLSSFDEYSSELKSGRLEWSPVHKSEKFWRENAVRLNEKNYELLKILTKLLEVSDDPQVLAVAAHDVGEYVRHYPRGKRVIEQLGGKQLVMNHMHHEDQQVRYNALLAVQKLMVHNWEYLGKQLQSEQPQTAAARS
UniProt P61264: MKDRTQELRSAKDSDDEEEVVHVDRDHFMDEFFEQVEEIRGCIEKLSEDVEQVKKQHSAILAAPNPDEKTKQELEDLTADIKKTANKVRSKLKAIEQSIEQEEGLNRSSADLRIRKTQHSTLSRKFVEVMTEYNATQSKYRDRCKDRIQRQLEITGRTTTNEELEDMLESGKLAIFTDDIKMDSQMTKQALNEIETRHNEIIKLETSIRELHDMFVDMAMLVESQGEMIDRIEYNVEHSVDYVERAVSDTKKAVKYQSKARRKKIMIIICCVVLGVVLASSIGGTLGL

T1: mCLN6-BioID2 (mouse) (UniProt Q3U466)
T1 sequence: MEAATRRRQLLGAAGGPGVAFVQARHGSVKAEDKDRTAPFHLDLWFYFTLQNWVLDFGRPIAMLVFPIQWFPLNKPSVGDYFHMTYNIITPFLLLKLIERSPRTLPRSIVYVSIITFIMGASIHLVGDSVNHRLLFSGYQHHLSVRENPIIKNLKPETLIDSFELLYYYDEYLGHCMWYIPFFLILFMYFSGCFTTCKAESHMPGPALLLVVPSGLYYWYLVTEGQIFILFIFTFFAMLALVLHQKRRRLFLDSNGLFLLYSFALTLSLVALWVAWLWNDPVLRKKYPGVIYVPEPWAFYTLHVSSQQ

T2: BioID2-hCLN3 (human) (UniProt Q13286)
T2 sequence: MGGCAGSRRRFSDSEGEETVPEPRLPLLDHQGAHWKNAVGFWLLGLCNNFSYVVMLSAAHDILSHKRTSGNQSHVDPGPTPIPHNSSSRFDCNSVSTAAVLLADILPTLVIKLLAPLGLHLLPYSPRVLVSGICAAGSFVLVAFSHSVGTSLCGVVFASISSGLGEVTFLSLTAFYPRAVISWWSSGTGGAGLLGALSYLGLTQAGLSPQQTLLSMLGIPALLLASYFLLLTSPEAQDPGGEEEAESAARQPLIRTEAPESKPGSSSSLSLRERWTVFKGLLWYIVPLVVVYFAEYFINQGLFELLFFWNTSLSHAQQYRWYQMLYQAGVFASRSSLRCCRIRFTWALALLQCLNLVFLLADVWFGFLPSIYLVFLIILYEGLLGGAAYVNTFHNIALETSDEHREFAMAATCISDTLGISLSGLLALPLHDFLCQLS


Tests used:
mCLN6-BioID2 (mouse) = target: T1, mCLN6-BioID2 (mouse); assay: proximity labelling
BioID2-hCLN3 (human) = target: T2, BioID2-hCLN3 (human); assay: proximity labelling

| binding (mCLN6-BioID2 (mouse)) | binding (BioID2-hCLN3 (human)) | Molecule |
| --- | --- | --- |
| binds | binds | ATPase H+ Transporting V1 Subunit H (from UniProt Q8BVE3 1-483) |
| binds | binds | Synaptobrevin homolog YKT6 (protein, UniProt Q9CQW1 1-198) MKLYSLSVLYKGDPKAVLLKAAYDVSSFSFFQRSSVQEFMTFTSQLIVERSGKGSRASVKEQEYLCHVYVRSDSLAGVVIADSEYPSRVAFTLLEKVLDEFSKQVDRIDWPVGSPATIQYTGLDDHLSKYQNPREADPMSKVQAELDETKIILHNTMESLLERGEKLDDLVSKSEVLGTQSKAFYKTARKQNSCCAIM |

| Molecule | binding (mCLN6-BioID2 (mouse)) | binding (BioID2-hCLN3 (human)) |
| --- | --- | --- |
| Syntaxin 1B (from UniProt P61264 1-288) | binds | binds |

No constants are given. Whether binding was seen depends on the method and setting. In cells and extracts the contact can be indirect. A yes stands for co-enrichment or nearness to the bait. Other partners may have been found.
